{"source": "PubChem BioAssay AID540276", "about": "(National Center for Advancing Translational Sciences (NCATS), 2011)", "note": "“And” between values parts separate entries of the source, which are not always exact repeats. Equal entries are not always repeated. The campaign covered roughly 300,000 compounds. About 5,400 (1.8%) were called active. The shares of active, inactive and inconclusive entries below differ from those in the screen. Calls follow the shape of the full dose curve; tested in HEK293 cells. A potency beside an inconclusive call is a rough fit, not a confirmed value. % is scaled to controls: 0 for no effect and ±100 for the full control effect; potency is read from the fitted curve at half-maximal effect."}
{"assay": "qHTS for inhibitors of binding or entry into cells for Marburg Virus", "details": "Marburg virus pseudotyped entry inhibition, cell reporter; activity change, negative = inhibition: at 37.8 µM (top of the series) unless noted"}
{"smiles": "Cc1ccc(C)c(S(=O)(=O)N2CCN(C(=O)c3ccccc3Cc3ccccc3)CC2)c1", "Potency": "inconclusive: 10 µM [inhibitor, partial curve, poor fit]"}
{"smiles": "Cc1nc(C(=O)NNC(=O)Nc2ccccc2)cs1", "activity change, negative = inhibition": "inactive: 9.52%"}
{"smiles": "CC(C)CCNC(=O)C(=O)Nc1ccccc1", "activity change, negative = inhibition": "inactive: -3.63% [at 46.1 µM]"}
{"smiles": "O=C(COC(=O)c1cccs1)NCCC1=CCCCC1", "activity change, negative = inhibition": "inactive: 6.63% [at 46.1 µM]"}
{"smiles": "OCC1NCC(O)C(O)C1O", "note": "(centres undefined)", "Potency": "inconclusive: 0.004 µM [inhibitor, full curve, poor fit]"}
{"smiles": "CCC(SC1=NCCS1)C(=O)Nc1ccc(S(N)(=O)=O)cc1", "note": "(centres undefined)", "activity change, negative = inhibition": "inactive: -6.13%"}
{"smiles": "c1ccc(-c2ccc(-c3csnn3)cc2)cc1", "activity change, negative = inhibition": "inactive: -15.8%"}
{"smiles": "c1nc(N2CCOCC2)c2c3c(sc2n1)CCCC3", "activity change, negative = inhibition": "inactive: 3.93%"}
{"smiles": "CC1CCCC=CC2CC(OC(=O)CN(C)C)CC2C(O)C=CC(=O)O1", "note": "(centres undefined)", "Potency": "inconclusive: 0.316 µM [inhibitor, full curve, poor fit]"}
{"smiles": "CC(/C=N/NC(=O)c1ccc(Cn2cc([N+](=O)[O-])cn2)o1)=C\\c1ccccc1", "activity change, negative = inhibition": "inactive: 5.58% [at 46.1 µM]"}
{"smiles": "CCN(CC)CCC(=O)c1ccc(F)cc1", "Potency": "inconclusive: 0.891 µM [activator, full curve, poor fit]"}
{"smiles": "COc1ccc(C2(O)CCN(C(=O)c3ccc4c(c3)OCO4)CC2)cc1", "Potency": "inconclusive: 35.5 µM [activator, partial curve, poor fit]"}
{"smiles": "CCNC(=S)NS(=O)(=O)c1ccc(F)cc1", "Potency": "inconclusive: 25.1 µM [activator, single point]"}
{"smiles": "O=C(Nc1c(F)cc(F)cc1Br)c1cc(-c2ccco2)on1", "activity change, negative = inhibition": "inactive: 4.53%"}
{"smiles": "N=c1sccn1CC(=O)Nc1cccc(S(=O)(=O)N2CCCCCC2)c1", "Potency": "inconclusive: 8.2 µM [inhibitor, partial curve, poor fit]"}
{"smiles": "Cc1cccc(NC(=O)c2cccc(N3C(=O)C4C5CCC(C5)C4C3=O)c2)c1C", "note": "(centres undefined)", "Potency": "inconclusive: 23.1 µM [activator, single point]"}
{"smiles": "O=C(CSc1oc(-c2cccs2)nc1S(=O)(=O)c1ccccc1)NC1CCCCC1", "Potency": "inconclusive: 14.6 µM [inhibitor, single point]"}
{"smiles": "N#Cc1c(N)nc(N2CCCC2)c(C#N)c1-c1ccc(Cl)cc1", "activity change, negative = inhibition": "inactive: -5.62%"}
{"smiles": "CCCCNC(=S)N1CCN(C)CC1", "Potency": "inconclusive: 11.2 µM [inhibitor, partial curve]"}
{"smiles": "CCOC(=O)C1=C(O)/C(=C/c2ccccn2)SC1=Nc1ccc(Cl)cc1", "Potency": "inconclusive: 0.631 µM [inhibitor, full curve, poor fit]"}
{"smiles": "CC(C)(C)Nc1nc2ccc([N+](=O)[O-])cc2o1", "activity change, negative = inhibition": "inactive: 2.81% [at 46.1 µM]"}
{"smiles": "C(=Cc1c[nH]c2ccccc12)c1nccc2ccccc12", "Potency": "inconclusive: 20 µM [inhibitor, single point]"}
{"smiles": "COC(=O)c1sc(=S)n(-c2cc(F)ccc2F)c1N", "activity change, negative = inhibition": "inactive: -2.88%"}
{"smiles": "Cc1cc(C)c(NC(=O)CSCc2c(C)noc2C)c(C)c1", "Potency": "inconclusive: 1.26 µM [activator, single point]"}
{"smiles": "CS(=O)(=O)N(Cc1ccccc1F)c1ccccc1", "activity change, negative = inhibition": "inactive: -1.97% [at 46.1 µM]"}
{"smiles": "O=C(CN1C(=O)c2ccccc2S1(=O)=O)Nc1ccc([N+](=O)[O-])cc1", "Potency": "inconclusive: 0.631 µM [inhibitor, full curve, poor fit]"}
{"smiles": "CCOc1cc(/C=N/NC(=O)CN2CCCCC2)ccc1OCc1cccc(Cl)c1", "Potency": "inconclusive: 35.5 µM [inhibitor, partial curve, poor fit]"}
{"smiles": "Clc1ccc2nc(N3CCNCC3)nc(-c3ccccc3)c2c1", "Potency": "inconclusive: 11.2 µM [inhibitor, single point]"}
{"smiles": "O=C(c1ccc2c(=O)n(CCc3ccccc3)c(=O)[nH]c2c1)N1CCN(c2ccc(F)cc2)CC1", "Potency": "inconclusive: 35.5 µM [inhibitor, single point] and inconclusive: 6.31 µM [inhibitor, full curve, poor fit]"}
{"smiles": "COc1cc(C2/C(=C(\\O)c3ccc4c(c3)CC(C)O4)C(=O)C(=O)N2CC2CCCO2)cc(OC)c1OC", "note": "(centres undefined)", "activity change, negative = inhibition": "inactive: 19.8%"}
{"smiles": "Cc1nn2c(-c3ccccc3)nnc2c2ccccc12", "activity change, negative = inhibition": "inactive: -3.21%"}
{"smiles": "C/C(=N\\NC(=O)c1nnn(-c2nonc2N)c1-c1cccs1)c1ccc(C)cc1", "Potency": "inconclusive: 35.5 µM [inhibitor, single point]"}
{"smiles": "Cc1cc(C)n(CC(O)Cn2c3ccc(Br)cc3c3cc(Br)ccc32)c(=O)n1", "note": "(centres undefined)", "Potency": "inconclusive: 20.6 µM [inhibitor, single point]"}
{"smiles": "CCOc1ccccc1NC(=O)CNC(=O)c1nn(-c2ccc(OC)c(OC)c2)c(=O)c2ccccc12", "Potency": "inconclusive: 10 µM [inhibitor, partial curve, poor fit]"}
{"smiles": "COc1ccc(-c2nc(C#N)c(NCc3ccccc3Cl)o2)cc1OC", "Potency": "inconclusive: 13 µM [inhibitor, partial curve, poor fit]"}
{"smiles": "O=C(O)CC1S/C(=N/N=C/C=C/c2ccccc2)NC1=O", "note": "(centres undefined)", "Potency": "inactive and inconclusive: 708 nM [inhibitor, single point]"}
{"smiles": "CN(C)CCCN(C(=O)c1cc(-c2cccs2)nc2ccccc12)c1nc2c(F)cccc2s1", "Potency": "active: 11.2 µM"}
{"smiles": "CCN(CC)C(=O)C1CCCN(Cc2ccccc2F)C1", "note": "(centres undefined)", "Potency": "inconclusive: 1.64 µM [inhibitor, partial curve, poor fit]"}
{"smiles": "Cc1nn(Cc2ccccc2)c(C)c1C(=O)OCC(=O)NCc1ccco1", "activity change, negative = inhibition": "inactive: -12.3%"}
{"smiles": "Brc1ccccc1OCCCn1cnc2ccccc21", "Potency": "inconclusive: 2.59 µM [activator, partial curve]"}
{"smiles": "CC1CCCN(C(=O)COC(=O)c2cccc(NS(=O)(=O)c3ccccc3)c2)C1", "note": "(centres undefined)", "activity change, negative = inhibition": "inactive: 11.5%"}
{"smiles": "O=C(Nc1nc2ccccc2n1CCN1CCOCC1)c1cn(-c2ccccc2)nc1-c1ccccc1", "Potency": "inconclusive: 11.2 µM [inhibitor, single point]"}
{"smiles": "Cc1nc(NCCc2ccccc2)c(C#N)c(C)c1[N+](=O)[O-]", "Potency": "inconclusive: 22.4 µM [inhibitor, single point]"}
{"smiles": "COc1ccc(/C=C/C(=O)Nc2sc3c(c2C(=O)NCc2cccnc2)CCCC3)cc1", "Potency": "inconclusive: 29.1 µM [inhibitor, single point]"}
{"smiles": "O=C(CCN1C(=O)C2C3CC(C(Br)C3Br)C2C1=O)OCC(=O)c1cccc([N+](=O)[O-])c1", "note": "(centres undefined)", "activity change, negative = inhibition": "inactive: 13.5% [at 46.1 µM]"}
{"smiles": "COc1ccc(C2c3[nH]c4ccccc4c3CCN2C(=O)c2cn3ccccc3n2)c(F)c1", "note": "(centres undefined)", "Potency": "inconclusive: 25.1 µM [inhibitor, partial curve, poor fit]"}
{"smiles": "COc1ccc(/C=C/C(=O)NC(=S)NNC(=O)c2ccco2)cc1", "Potency": "inconclusive: 8.91 µM [inhibitor, single point]"}
{"smiles": "COc1ccccc1CNC(=O)C(=O)NCC1OCCCN1S(=O)(=O)c1ccc(F)cc1C", "note": "(centres undefined)", "activity change, negative = inhibition": "inactive: -23%"}
{"smiles": "COc1ccccc1C(=O)Nc1ccncc1", "activity change, negative = inhibition": "inactive: -12.7% [at 46.1 µM]"}
{"smiles": "c1cc(OCCCN2CCCCC2)ccc1CN1CCCCC1", "Potency": "inconclusive: 7.08 µM [inhibitor, partial curve, poor fit]"}
{"smiles": "COc1ccc2c(c1)c1ncn(CCN3CCCC3)c(=O)c1n2C", "Potency": "inconclusive: 29.1 µM [inhibitor, single point]"}
{"smiles": "CCOC(=O)Nc1ccc(S(=O)(=O)NC2CCCCC2)cc1", "Potency": "inconclusive: 0.103 µM [inhibitor, full curve, poor fit]"}
{"smiles": "O=C(Nc1ccc(N2CCOCC2)cc1)c1cc2c(s1)CCCCC2", "Potency": "inconclusive: 22.4 µM [inhibitor, single point]"}
{"smiles": "O=S(=O)(NCCN1CCOCC1)c1ccc(Cl)s1", "Potency": "inconclusive: 3.55 µM [activator, single point]"}
{"smiles": "CC(C)c1ccc(CN(Cc2ccco2)c2cnc(S(C)(=O)=O)nc2C(=O)Nc2ccc(F)cc2)cc1", "Potency": "inconclusive: 22.4 µM [inhibitor, single point]"}
{"smiles": "O=P(OC1CCCCC1)(OC1CCCCC1)C(Nc1ccccc1)c1cccnc1", "note": "(centres undefined)", "Potency": "inconclusive: 25.1 µM [inhibitor, single point]"}
{"smiles": "Cc1nnc(SCCn2c(N3CCC(Cc4ccccc4)CC3)nc3c2c(=O)[nH]c(=O)n3C)s1", "Potency": "inconclusive: 23.1 µM [inhibitor, partial curve, poor fit]"}
{"smiles": "CCC(=O)N1N=C2CC(C)(C)OCC2C1c1ccccc1", "note": "(centres undefined)", "Potency": "inconclusive: 6.31 µM [inhibitor, single point]"}
{"smiles": "CCn1c(=O)[nH]c2cc(Cl)c(Cl)cc21", "Potency": "inconclusive: 17.8 µM [inhibitor, partial curve, poor fit]"}
{"smiles": "COc1ccc(N=CC2=C(O)c3ccccc3C2=O)c(OC)c1", "Potency": "inconclusive: 3.98 µM [inhibitor, full curve, poor fit]"}
{"smiles": "CC(CN1CCNCC1)(NS(=O)(=O)c1ccccc1)c1ccccc1", "note": "(centres undefined)", "Potency": "active: 11.2 µM"}
{"smiles": "COc1cc(OC)c(C(=O)NCc2ccco2)cc1OC", "activity change, negative = inhibition": "inactive: 8.39% [at 46.1 µM]"}
{"smiles": "CCOC(=O)Cn1c(=NC(=O)c2nc3ccccc3s2)sc2cc(S(N)(=O)=O)ccc21", "Potency": "inconclusive: 17.8 µM [activator, partial curve, poor fit]"}
{"smiles": "CC(C)=CCC/C(C)=C/C=N/NC(=O)c1ccc([N+](=O)[O-])cc1", "activity change, negative = inhibition": "inactive: 0.567%"}
{"smiles": "Cc1cc(N2CCN(Cc3ccccc3)CC2)n2nc(C)c(-c3ccccc3)c2n1", "activity change, negative = inhibition": "inactive: -1.61%"}
{"smiles": "COc1ccc(OCCC(=O)OCC(=O)Nc2ccc(S(=O)(=O)N3CCOCC3)cc2)cc1", "Potency": "inconclusive: 3.55 µM [inhibitor, partial curve, poor fit]"}
{"smiles": "CN(C)CCNC(=O)c1ccc2c(=O)n3c(nc2c1)CCCCC3", "activity change, negative = inhibition": "inactive: -6.85% [at 46.1 µM]"}
{"smiles": "COc1ccc(/C=C2\\SC(=S)N(N3CCOCC3)C2=O)c(OC)c1", "Potency": "inconclusive: 7.08 µM [inhibitor, single point]"}
{"smiles": "COC/C=C/C1=CC2=CC(=O)C(C)(OC(=O)c3cnc4ccccc4n3)C(=O)C2=CN1CC(C)C", "note": "(centres undefined)", "Potency": "inconclusive: 1.33 µM [activator, single point]"}
